# Screen size: about 210,000 compounds; about 5,900 (2.8%) were called active. About 5% were inconclusive and are not listed. Calls follow the shape of the dose curve; as a rule, active = well fitted activation curve with a large enough effect; inconclusive = small, poorly fitted or top-dose-only effect; inactive = no such curve, though single readings can be large or run the other way. The list shows a part of the results, in another mix than the full data. The source gives no active or inactive call for entries shown without one.
# Experiment: qHTS Assay for Enhancers of SMN2 Splice Variant Expression; also: nearly all actives have a fitted effect of over 55% in size; as to activity change, positive = activation: % of control where 0% means no effect
# Details: HEK293 SMN2-luciferase splicing reporter, luminescence, 30-36 h; activity change, positive = activation: at 46.1 µM (top of the series)
# How it was run: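 qHTS luciferase splicing reporter: luminescence rises when SMN2 exon 7 is included in transfected HEK293 cells. Compound exposure lasted 30-36 h at 37C, with 4.5 mM final sodium butyrate as control, followed by a ONE-Glo read.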
# Potency is read from the fitted curve at half-maximal effect.
Structure (SMILES),"activity change, positive = activation",Potency
COc1ccc(/C=C2/C(=O)N(Cc3ccco3)C(=O)N(C(C)C)C2=O)cc1,2.11%,
O=C1NC(=O)N(Cc2ccccc2)C(=O)/C1=C\N1CCCc2ccccc21,8.28%,
CNC(=O)COC(=O)c1ccc(-c2nc3ccccc3s2)s1,,active: 15.8 µM
O=C1C(=O)c2ccccc2-c2ccccc21,inactive: -106%,
CN1C2CCC1CC(OC(=O)CCN1CCCC1)C2 (stereo not drawn),34.6%,
Cc1ccc[n+](CC(O)Cn2c3ccccc3c3ccccc32)c1 (stereo not drawn),15.7%,
Cc1cc(C)cc(-n2c(C)cc(/C=C3\C(=O)NC(=O)N(C)C3=O)c2C)c1,inactive: 10.7%,
CC(C)C1C(=O)N2CCC[C@H]2[C@]2(O)O[C@](NC(=O)[C@@H]3C=C4c5cccc6[nH]cc(c56)C[C@H]4N(C)C3)(C(C)C)C(=O)N12 (stereo partly drawn),inactive: -2.57%,
COc1ccc2nc(NC3=NCCN3)sc2c1,,active: 10 µM
O=C1NC(=O)C2(Cc3ccccc3N3CCCC32)C(=O)N1c1ccc(Cl)cc1 (stereo not drawn),39.2%,
O=C(Oc1ccc2ccc(OC(=O)N3CCOCC3)cc2c1)N1CCOCC1,inactive: -33.2%,
CC(=O)OC1CCC23C(=O)OC45CCC(C6=CC(=O)OC6)C4(C)CCC2C5CCC3(O)C1 (stereo not drawn),-88.9%,
Cc1cc(N2CCCCC2)ccc1C=C1C(=O)N(C)C(=S)N(C)C1=O,inactive: -53.6%,
S=C=Nc1ccccn1,41.7%,
CCCCc1ccc2[nH]cc(CCN)c2c1,-57.8%,
CC(=O)Oc1ccccc1C(=O)Nc1ncc([N+](=O)[O-])s1,,active: 12.6 µM
CN1CCN(/N=C/c2c(O)n(C)c(=O)n(C)c2=O)CC1,-42.9%,

Structure (SMILES),"activity change, positive = activation",Potency
CN1CCC(O)(c2ccccc2)C2CCCC21 (stereo not drawn),47.5%,
CN(CCc1ccc(Cl)c(Cl)c1)[C@@H]1CCCC[C@@H]1N1CCCC1,inactive: -52.3%,
CCCCn1c(=O)c(C=Nc2cccnc2Cl)c(O)n(CCCCl)c1=O,17.2%,
CNC(=O)c1cccn(Cc2cc(C(F)(F)F)cc(C(F)(F)F)c2)c1=O,inactive: -68.1%,
CC(=O)C1CCC2C3CCC4=CC(=O)CC[C@@]4(C)C3CC[C@]12C (stereo partly drawn),inactive: -69%,
CC(C)(C)OC(=O)N1CC(O)CC1C(=O)OCC(=O)c1ccc(-c2ccccc2)cc1 (stereo not drawn),inactive: -43%,
CSc1ccc(CNC2CN3CCC2CC3)cc1 (stereo not drawn),2.05%,
O=[As](O)(O)c1ccc(Cc2ccc([As](=O)(O)O)cc2)cc1,inactive: -35.3% [at 9.22 µM],
COc1ccc(Cc2nccc3cc(OC)c(OC)cc23)cc1OC,,inactive
CCN1/C(=C\C=C\C2=[N+](CC)c3ccccc3C2(C)C)C(C)(C)c2ccccc21,inactive: -69.7%,
Cc1ccccc1NC(=S)NC(NC(=O)CF)C(Cl)(Cl)Cl (stereo not drawn),35.9%,
CC(C)(c1ccc(OCC2CO2)cc1)c1ccc(OCC2CO2)cc1 (stereo not drawn),-94.7%,
CCOC(=O)c1cc2c(cn1)[nH]c1ccccc12,inactive: 24.9%,
COC(=O)C[C@]1(C(=O)OC)CN(C#N)N(c2ccc(Cl)cc2)C12c1ccccc1-c1ccccc12,inactive: -116%,
CC(=O)c1ccccc1NC(=O)C1C2CCC(O2)C1C(=O)O (stereo not drawn),42.5%,
CCC(=NCCO)c1c(O)n(-c2ccccc2)c(=O)[nH]c1=O,31%,

# As entered above.
# CC(C)(C)OC(=O)N1CC(O)CC1C(=O)OCC(=O)c1ccc(-c2ccccc2)cc1 (stereo not drawn) | activity change, positive = activation: inactive: -43%
# CC(=O)c1ccccc1NC(=O)C1C2CCC(O2)C1C(=O)O (stereo not drawn) | activity change, positive = activation: 42.5%
